Among all 360,000 compounds or so, about 7,500 (2.1%) were called active. The shares of active, inactive and inconclusive entries below differ from those in the screen. Calls follow the shape of the dose curve; as a rule, active = well fitted inhibition curve with a large enough effect; inconclusive = small, poorly fitted or top-dose-only effect, or effect the other way; inactive = flat fitted curve, though single readings scatter. Potencies of inconclusive entries are doubtful fits and often do not repeat.
Test: Nrf2 qHTS screen for inhibitors; also: nearly all actives have a fitted effect of over 60% in size
Settings: A549 ARE-Fluc reporter, luciferase luminescence, 18-24 h; activity change, negative = inhibition: at 46 µM (top of the series)
Procedure, shortened: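 Quantitative HTS in A549 cells stably bearing an antioxidant response element-firefly luciferase construct. Inhibition of Nrf2-driven transcription was scored by luminescence after 18-24 h of compound exposure at 37 °C.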
In the case of COc1ccc2[nH]cc(CCNC(=O)Cc3c(F)cccc3Cl)c2c1, the Potency is reported as inconclusive: 0.082 µM [falling, full curve, poor fit]. In the case of COc1ccccc1OCc1ccc(C(=O)NCC2CCCO2)o1 (stereo not given), the Potency is reported as inconclusive: 3.66 µM [activator, single point]. In the case of COc1ccc(-c2cc(C(=O)OCC(=O)c3cccc([N+](=O)[O-])c3)c3cc(C)ccc3n2)cc1, the Potency is reported as inconclusive: 23.1 µM [falling, single point]. With COc1ccc2[nH]c(=O)c(CN(CCc3ccccc3)C(C)=O)cc2c1 the Potency was “inactive”. For CCOC(=O)C1CCN(C(=O)C2CCN(S(=O)(=O)c3cc(Cl)ccc3Cl)CC2)CC1, the Potency was inconclusive: 23.1 µM [falling, partial curve, poor fit]. In the case of CCOC(=O)C1CCN(C(=O)CN2c3ccc(CC)cc3-c3ccccc3S2(=O)=O)CC1, the Potency is reported as “inactive”. With CCCn1c(NCc2ccc(N(CC)CC)cc2)nc2ccccc21 the Potency was “inactive”. In the case of O=C(CN1C(=O)/C(=C\c2ccccc2Br)Oc2ccccc21)NCCCN1CCOCC1, the Potency is reported as inconclusive: 29.1 µM [falling, single point]. For COCc1cc(C)n(CC(=O)NC(C)c2ccccc2)c(=O)c1C#N (stereo not given), the Potency was “inactive”. With O=C(O)C1(Cc2nc3ccccc3[nH]2)CCCC1 the Potency was inconclusive: 6.51 µM [falling, full curve, poor fit]. For O=C(NCc1ccccc1)C(=O)NCC(c1ccco1)N1CCOCC1 (stereo not given), the Potency was inconclusive: 18.4 µM [activator, partial curve, poor fit]. With Cc1ccc(NC(=O)C2CCN(S(=O)(=O)c3cccc(C(F)(F)F)c3)CC2)nc1 the Potency was inconclusive: 18.4 µM [falling, partial curve, poor fit]. For CN1CCN(c2nc3c(S(=O)(=O)c4ccccc4)nnn3c3ccsc23)CC1, the Potency was inconclusive: 16.4 µM [activator, partial curve, poor fit]. With COC(=O)c1ccc(CSc2nnc(-c3c[nH]c4ccccc34)n2-c2ccccc2)cc1 the Potency was inconclusive: 18.4 µM [activator, single point]. For CCOC(=O)N1CCN(c2ncc3c(n2)CC(c2ccc(Cl)cc2)CC3=O)CC1 (stereo not given), the Potency was inconclusive: 29.1 µM [falling, single point]. With Brc1cc(Cc2nnc(-c3ccccc3)o2)c(Br)s1 the Potency was inconclusive: 0.0046 µM [activator, full curve, poor fit]. With COc1ccc(C2C(C(=O)Nc3cccnc3)=C(C)Nc3nc(SCc4ccccc4)nn32)cc1 (stereo not given) the activity change, negative = inhibition was inactive: -7.5% [at 9.27 µM]. For O=C(NC(=S)Nc1cc(S(=O)(=O)N2CCOCC2)ccc1N1CCOCC1)c1ccco1, the Potency was inconclusive: 6.51 µM [activator, single point]. With Cc1c(C(=O)Nc2nc3ccccc3[nH]2)oc2ccccc12 the Potency was inconclusive: 0.731 µM [activator, full curve, poor fit]. With CCOCCCNC(=O)c1ccc(Cn2c(=O)c3cccn3c3cccnc32)cc1 the Potency was “inactive”. With C/C(=N/NS(=O)(=O)c1ccc(C)cc1)[C@H]1C[C@@H]1c1ccccc1 the Potency was inconclusive: 32.6 µM [falling, partial curve, poor fit]. For Cc1ccc(-c2noc(CN(C(=O)CCCCCN3C(=O)c4ccccc4C3=O)C(C)C)n2)cc1, the Potency was inconclusive: 32.6 µM [falling, single point]. For COc1ccc(/C=C/C(=O)Nc2cc(S(=O)(=O)N3CCOCC3)ccc2N2CCCC2)cc1OC, the Potency was inconclusive: 4.11 µM [falling, full curve, poor fit]. With O=C(Nc1ccc(F)cc1)c1ccc(S(=O)(=O)N2CCOCC2)o1 the Potency was “inactive”. With O=C(c1ccco1)N1CCC(c2nc3ccccc3[nH]2)CC1 the Potency was inconclusive: 7.31 µM [activator, partial curve, poor fit]. With C=CC[C@@H](CC(=O)N(CCO)Cc1ccccc1)C(=O)N[C@@H](C)COC(=O)[C@@H](CC=C)CC(=O)OC(C)(C)C the Potency was inconclusive: 6.51 µM [activator, full curve, poor fit]. For COc1ccc(C(=O)OC(C)CN2CCN(C)CC2)cc1OC (stereo not given), the Potency was inconclusive: 6.51 µM [activator, single point]. With COc1cc(NC(=O)CN2CCCN(S(=O)(=O)c3ccc(F)cc3)CC2)cc(OC)c1 the Potency was inconclusive: 6.51 µM [falling, partial curve, poor fit]. With CCOc1ccccc1NC(=O)C(Sc1ccccc1)c1ccccc1 (stereo not given) the Potency was inconclusive: 13 µM [falling, partial curve]. With COc1cccc(OC)c1C1=CC(=O)C[C@H](c2ccc3c(c2)OCO3)C1 the Potency was “inactive”. In the case of Cc1ccc(C)c(N(C(=O)c2ccco2)C(C(=O)NC2CCCC2)c2ccco2)c1 (stereo not given), the Potency is reported as “inactive”. With Cc1cc(C(=O)C(C)OC(=O)c2ccc(NC(=O)CC#N)cc2)c(C)n1-c1ccccc1 (stereo not given) the Potency was active: 18.4 µM. In the case of O=C(Nc1ccc(N2CCN(C(=O)c3ccccc3F)CC2)cc1)c1cncc(Br)c1, the Potency is reported as inconclusive: 20.6 µM [falling, single point]. For Cc1ccc(C(C(=O)NC2CCCC2)N(C(=O)Cc2cccs2)c2ccc(C)c(C)c2)o1 (stereo not given), the Potency was active: 18.4 µM. With O=C(COc1ccc(Cl)cc1)NCCS(=O)(=O)N1CCN(c2ccc(F)cc2)CC1 the Potency was inconclusive: 23.1 µM [falling, partial curve, poor fit]. With Cc1ccc2nc(-c3ccc(NC(=O)COc4ccccc4C(C)(C)C)cc3)sc2c1 the Potency was inconclusive: 4.11 µM [activator, partial curve]. In the case of O=C(NCCN1C(=O)C2C3C=CC(C3)C2C1=O)Nc1ccc(Br)cc1 (stereo not given), the Potency is reported as inconclusive: 13 µM [activator, partial curve]. For CCN(CC)c1ccc(S(=O)(=O)N(CC)CC)cc1NC(=O)c1cccnc1, the Potency was inconclusive: 1.3 µM [activator, full curve, poor fit]. With CN(CC#CC1(O)c2ccccc2-c2ccccc21)Cc1ccccc1 the Potency was “inactive”. For CN(C)CCCN(C(=O)c1ccc(S(=O)(=O)N2CCc3ccccc3C2)cc1)c1nc2ccc(F)cc2s1, the Potency was inconclusive: 23.1 µM [falling, single point].

— PubChem BioAssay AID504444 (National Center for Advancing Translational Sciences (NCATS), 2011)
% is scaled to controls: 0 for no effect and ±100 for the full control effect; potency is read from the fitted curve at half-maximal effect.
